In article PMC3823801, “Structure Reveals Regulatory Mechanisms of a MaoC-Like Hydratase from Phytophthora capsici Involved in Biosynthesis of Polyhydroxyalkanoates (PHAs)” (PLoS ONE, 2013):
No constants are given. Whether binding was seen depends on the method and setting.

Key:
Experiment in all cases: SEC; analytical gel filtration, Superdex 75 10/300 GL, 10 mM Tris-HCl pH 8.5, 100 mM NaCl, 1 mM DTT; calibrated with BSA (66 kDa) and rabbit IgG (150 kDa); both purified
[1] = biological target: MaoC L191D (Phytophthora capsici (SD33)) (UniProt E3T2G3)
[2] = biological target: MaoC M27E (Phytophthora capsici (SD33)) (UniProt E3T2G3)
[3] = biological target: MaoC R23D (Phytophthora capsici (SD33)) (UniProt E3T2G3)

With “MaoC L191D (from UniProt E3T2G3 1-298) (enzyme)” as the substance, how does the binding [1] read?
Its binding is “no binding”.

With “MaoC M27E (from UniProt E3T2G3 1-298) (enzyme)” as the substance, how does the binding [2] read?
Its binding is “no binding”.

With “MaoC R23D (from UniProt E3T2G3 1-298) (enzyme)” as the substance, how does the binding [3] read?
The binding was “no binding”.
